Experimental data as given in patent US20030190679A1.
These are yes or no findings as the source states them, for the method shown. Binding seen in cells or lysates may run through a third protein. Some results given as binding are weak or reduced against the parent protein; the word gives no strength.

Sequences of proteins named here, by UniProt entry; tags and fusion partners are left off. A change or cut given only in a name is not applied to a line headed by its entry.
UniProt P29466: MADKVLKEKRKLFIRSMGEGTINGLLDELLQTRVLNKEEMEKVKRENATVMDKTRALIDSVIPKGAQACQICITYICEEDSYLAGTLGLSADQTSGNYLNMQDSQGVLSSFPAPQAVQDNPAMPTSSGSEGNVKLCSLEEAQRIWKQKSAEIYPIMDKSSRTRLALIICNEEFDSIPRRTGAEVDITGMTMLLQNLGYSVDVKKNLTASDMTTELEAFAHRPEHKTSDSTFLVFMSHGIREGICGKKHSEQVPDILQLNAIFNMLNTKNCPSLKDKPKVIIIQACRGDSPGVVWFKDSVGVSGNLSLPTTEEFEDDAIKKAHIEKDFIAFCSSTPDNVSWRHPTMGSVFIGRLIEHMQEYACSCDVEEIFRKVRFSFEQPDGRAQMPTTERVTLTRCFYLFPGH
UniProt Q9NPP4: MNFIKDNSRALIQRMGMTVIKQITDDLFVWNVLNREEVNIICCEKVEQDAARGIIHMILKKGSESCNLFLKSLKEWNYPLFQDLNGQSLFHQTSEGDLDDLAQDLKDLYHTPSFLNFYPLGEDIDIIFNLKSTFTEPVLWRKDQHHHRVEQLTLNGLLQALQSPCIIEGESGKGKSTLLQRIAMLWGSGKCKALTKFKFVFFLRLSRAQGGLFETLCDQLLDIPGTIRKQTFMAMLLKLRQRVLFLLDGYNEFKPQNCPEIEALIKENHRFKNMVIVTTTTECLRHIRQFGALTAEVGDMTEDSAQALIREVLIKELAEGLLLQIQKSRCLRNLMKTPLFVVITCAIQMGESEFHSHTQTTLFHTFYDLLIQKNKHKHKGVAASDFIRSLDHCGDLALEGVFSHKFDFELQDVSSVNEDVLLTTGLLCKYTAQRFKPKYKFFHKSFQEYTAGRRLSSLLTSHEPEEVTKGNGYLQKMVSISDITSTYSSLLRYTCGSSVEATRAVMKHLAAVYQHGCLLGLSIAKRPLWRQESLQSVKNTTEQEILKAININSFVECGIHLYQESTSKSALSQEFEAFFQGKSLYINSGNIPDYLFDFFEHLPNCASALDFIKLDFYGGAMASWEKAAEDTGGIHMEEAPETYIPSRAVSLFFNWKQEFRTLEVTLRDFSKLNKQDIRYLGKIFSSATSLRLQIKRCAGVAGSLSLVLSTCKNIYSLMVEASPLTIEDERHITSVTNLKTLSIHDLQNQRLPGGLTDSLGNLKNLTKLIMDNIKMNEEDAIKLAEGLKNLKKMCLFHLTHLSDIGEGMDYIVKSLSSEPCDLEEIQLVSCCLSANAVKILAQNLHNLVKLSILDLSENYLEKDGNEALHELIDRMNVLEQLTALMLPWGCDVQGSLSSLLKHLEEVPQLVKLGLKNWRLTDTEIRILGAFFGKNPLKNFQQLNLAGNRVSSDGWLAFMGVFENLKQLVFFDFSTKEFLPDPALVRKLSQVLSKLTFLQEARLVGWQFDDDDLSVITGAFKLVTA

Target: T7-tagged caspase-1 (UniProt P29466)
Assay: co-immunoprecipitation from 293T lysates (IP anti-T7, blot anti-myc)

- binding: binds
Substance: myc-tagged CARD-12 (from UniProt Q9NPP4 1-1024)
